Experimental data taken from patent US10315996B2, “ROR gamma (RORγ) modulators” (LEAD PHARMA HOLDING B.V., priority 2015, dated 2019).
Some results were stated once for a whole list of compounds, not compound by compound.

The compounds below were run on IL-17A production in anti-CD3/anti-CD28 stimulated peripheral blood mononuclear cells (PBMCs) (assay: Peripheral blood mononuclear cell (PBMC) IL-17 assay). Settings: inhibition of IL-17A production, PBMCs isolated from human blood, 5 days incubation, IL-17 ELISA.
Assay type: cell-based
Description: PBMC IL-17 Assay Description
This assay is designed to measure the levels of IL-17A secreted from anti-CD3/anti-CD28 stimulated PBMCs with the aim of measuring RORγ mediated inhibition of IL-17A production.
The assay medium consists of 90% RPMI 1640 (Lonza), 10% heat inactivated fetal bovin serum (FBS, Lonza) and 100 U/mL penicillin/streptomycin solution.
Anti-CD3 antibody (BD Pharmingen) was diluted to 10 μg/ml in PBS (Lonza). 30 μL of 10 μg/ml anti-CD3 solution was added to the inner 60 wells, excluding any negative control wells, of a 96-well cell culture treated U-bottom plate (Greiner). Plates were incubated overnight (16-24 hours) at 37° C. and 5% CO2.
Peripheral blood mononuclear cells were separated from buffy coats (Sanquin) using Ficoll-Paque PREMIUM separation medium (GE Healthcare Life Sciences) according to manufacturer's protocol and re-suspended in assay medium at 37° C.
Test compounds were diluted, starting from a 10 mM dimethylsulfoxide (DMSO) stock solution, to serial dilutions in DMSO at 200× the final test concentration. Subsequently, these solutions were diluted in two dilution steps in assay medium to 10× the final test concentration. The DMSO concentration of the 10× test compound solution was 5%.
Anti-CD28 antibody (BD Pharmingen) was diluted to 20 μg/mL in PBS. The PBMCs were diluted to a concentration of 2.5×10^6 cells/mL in assay medium at 37° C.
For compound screening, the anti-CD3 coated plates were washed three times with PBS, the wells were subsequently aspirated using vacuum. To each screening well 80 μL of the PBMC suspension, 10 μL of the anti-CD28 solution and 10 μL of the 10× test compound solution was added, resulting in the final test concentration with 0.5% DMSO. All outer wells were filled with assay medium to prevent evaporation. Plates were incubated for 5 days at 37° C. and 5% CO2.
After incubation the plates were spun down at 1500 rpm for 4 minutes and the supernatant was collected. Subsequently, the IL-17A levels in the supernatants was determined using an IL-17 ELISA kit (human IL-17 DuoSet, R&D systems) according to manufacturer's protocol.
The half maximum inhibitory concentration ([…]) values for the test compounds were calculated from the IL-17A signal using GraphPad Prism software (GraphPad Software).
With `CCCN(C(=O)c1ccc(NC(=O)Cc2ccc(S(=O)(=O)CC3CC3)cc2)cc1)c1cc(C)nn1C` [Example 86, 4-[2-(4-cyclopropylmethanesulfonylphenyl)acetamido]-N-(1,3-dimethyl-1H-pyrazol-5-yl)-N-propylbenzamide] the “mean pIC50” value was at least 6.
`CC(C)(C)N(C(=O)c1ccc(NC(=O)Cc2ccc(S(=O)(=O)CC3CC3)nc2)cc1)c1ccccc1` [Example 158, N-tert-butyl-4-[2-(6-cyclopropylmethanesulfonylpyridin-3-yl)acetamido]-N-phenylbenzamide] was tested, and the “mean pIC50” value was at least 6.
For `CCN(C(=O)c1ccc(NC(=O)Cc2ccc(S(=O)(=O)CC3CC3)cc2)cc1)c1cc(C)nn1C` [Example 88, 4-[2-(4-cyclopropylmethanesulfonylphenyl)acetamido]-N-(1,3-dimethyl-1H-pyrazol-5-yl)-N-ethylbenzamide], the “mean pIC50” value was at least 6.
For `CCN(C(=O)c1ccc(NC(=O)Cc2ccc(S(=O)(=O)CC3CC3)cc2)cc1)c1cc(C)on1` [Example 89, 4-[2-(4-cyclopropylmethanesulfonylphenyl)acetamido]-N-ethyl-N-(5-methyl-1,2-oxazol-3-yl)benzamide], the “mean pIC50” value was at least 6.
In the case of `COC(=O)C(C)(C)N(C(=O)c1ccc(NC(=O)Cc2ccc(S(=O)(=O)CC3CC3)cc2)cc1)c1ccccc1` [Example 145, methyl 2-(1-{4-[2-(4-cyclopropylmethanesulfonylphenyl)acetamido]phenyl}-N-phenylformamido)-2-methylpropanoate], the “mean pIC50” value is reported as at least 6.
For `CC(N(C(=O)c1ccc(NC(=O)Cc2ccc(S(=O)(=O)CC3CC3)cc2)cc1)c1ccccc1)C(F)(F)F` (stereo not drawn) [Example 146, 4-[2-(4-cyclopropylmethanesulfonylphenyl)acetamido]-N-phenyl-N-(1,1,1-trifluoropropan-2-yl)benzamide], the “mean pIC50” value was at least 6.
In the case of `O=C(Cc1ccc(S(=O)(=O)CC2CC2)cc1)Nc1ccc(C(=O)N(c2ccccc2)C2CC(F)(F)C2)cc1` [Example 144, 4-[2-(4-cyclopropylmethanesulfonylphenyl)acetamido]-N-(3,3-difluorocyclobutyl)-N-phenylbenzamide], the “mean pIC50” value is reported as at least 6.
`CC(C)(C)N(C(=O)c1ccc(NC(=O)Cc2ccc(S(=O)(=O)CC3CC3)nc2)c(F)c1)c1ccccc1` [Example 159, N-tert-butyl-4-[2-(6-cyclopropylmethanesulfonylpyridin-3-yl)acetamido]-3-fluoro-N-phenylbenzamide] was tested, and the “mean pIC50” value was at least 7.
`CCCN(C(=O)c1ccc(NC(=O)Cc2ccc(S(=O)(=O)CC3CC3)cc2)cc1)c1cc(C)on1` [Example 87, 4-[2-(4-cyclopropylmethanesulfonylphenyl)acetamido]-N-(5-methyl-1,2-oxazol-3-yl)-N-propylbenzamide] was tested, and the “mean pIC50” value was at least 6.
With `CC(C)(C1CCCO1)N(C(=O)c1ccc(NC(=O)Cc2ccc(S(=O)(=O)CC3CC3)nc2)cc1)c1ccccc1` (stereo not drawn) [Example 160, 4-[2-(6-cyclopropylmethanesulfonylpyridin-3-yl)acetamido]-N-[2-(oxolan-2-yl)propan-2-yl]-N-phenylbenzamide] the “mean pIC50” value was at least 7.

Same assay, conditions: inhibition of IL-17A production, PBMCs isolated from human blood, 5 days incubation, IL-17 ELISA; listed as example 159
In the case of `CC(C)(C)N(C(=O)c1ccc(NC(=O)Cc2ccc(S(=O)(=O)CC3CC3)nc2)c(F)c1)c1ccccc1` [Example 159, N-tert-butyl-4-[2-(6-cyclopropylmethanesulfonylpyridin-3-yl)acetamido]-3-fluoro-N-phenylbenzamide], the “mean pIC50” value is reported as at least 6.

Same assay, conditions: inhibition of IL-17A production, PBMCs isolated from human blood, 5 days incubation, IL-17 ELISA; listed as example 160
`CC(C)(C1CCCO1)N(C(=O)c1ccc(NC(=O)Cc2ccc(S(=O)(=O)CC3CC3)nc2)cc1)c1ccccc1` (stereo not drawn) [Example 160, 4-[2-(6-cyclopropylmethanesulfonylpyridin-3-yl)acetamido]-N-[2-(oxolan-2-yl)propan-2-yl]-N-phenylbenzamide] was tested, and the “mean pIC50” value was at least 6.
